Laboratory results: PubChem BioAssay AID652243 (Drosophila RNAi Screening Center, 2013)
The deposit covers about 24,000 reagents; below is an unselected part of those that have a named target and a result. In the full data, 246 (1%) were called active. 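Plates not normalised; calls are printed but the firefly/Renilla ratio behind them is not deposited; fold cut for lowering reported inconsistently.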 Raw values are not corrected between plates. Entries without a mark were called inactive. The numbers tell different reagents against one gene apart. Not stated in the record: the amount of reagent.

Screen: 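Fly regulators of androgen-dependent reporter output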 (primary screen)
Cell system: Drosophila S2R+ cells
Reagents: long dsRNA against Drosophila genes
Duration: 72 h (48 h, then 24 h hormone)
Challenge: synthetic androgen R1881 at 10 nM for 24 h
Detection: 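Per-well raw luminescence of the androgen-driven firefly reporter and of the Renilla control, two replicates each, without normalisation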
Scale: firefly reporter light: higher = more light from androgen-responsive reporter; Renilla control light: higher = more constitutive control signal (cell number, transfection)
Hit rule: 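Across duplicate plates, a knock-down whose log firefly/Renilla ratio shifted a set fold down or up from the GFP/LacZ control mean was a hit; the downward cut appears as both 1.5 and 3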
Calls: active = hit: reporter lowered or raised; inactive = no hit

| gene knocked down | reagent no. | firefly reporter light, replicate 1 | firefly reporter light, replicate 2 | Renilla control light, replicate 1 | Renilla control light, replicate 2 |
| --- | --- | --- | --- | --- | --- |
| Or65a (GeneID 318011) | 1 | 1.64e5 | 1.96e5 | 4.93e5 | 4.52e5 |
| wdn (GeneID 43398) | 1 | 1.07e5 | 77155 | 4.44e5 | 3.54e5 |
| wdn (GeneID 43398) | 2 | 5.46e5 | 5.72e5 | 8.31e5 | 7.71e5 |
| Tbh (GeneID 31718) | 1 | 2.54e5 | 3.25e5 | 2.49e6 | 2.48e6 |
| Tbh (GeneID 31718) | 2 | 2.53e5 | 2.00e5 | 6.11e5 | 5.98e5 |
| hig (GeneID 35949) | 1 | 3.17e5 | 2.47e5 | 1.62e6 | 1.13e6 |
| hig (GeneID 35949) | 2 | 3.30e5 | 6.31e5 | 8.79e5 | 1.32e6 |
| hig (GeneID 35949) | 3 | 4.01e5 | 7.60e5 | 1.17e6 | 1.82e6 |
| hig (GeneID 35949) | 4 | 6.95e5 | 4.46e5 | 8.14e5 | 4.11e5 |
| CG2691 (GeneID 32320) | 1 | 89933 | 70986 | 6.51e5 | 5.93e5 |
| pll (GeneID 43283) | 1 | 1.14e5 | 89598 | 9.99e5 | 9.89e5 |
| pll (GeneID 43283) | 2 | 4.23e5 | 8.74e5 | 8.45e5 | 1.57e6 |
| SdhAL (GeneID 39348) | 1 | 1.38e6 | 5.81e5 | 1.25e6 | 7.78e5 |
| CG17329 (GeneID 34958) | 1 | 1.39e5 | 1.22e5 | 1.72e6 | 1.56e6 |
| CG17329 (GeneID 34958) | 2 | 3.60e5 | 4.37e5 | 1.21e6 | 1.64e6 |
| Nap1 (GeneID 37798) | 1 | 1.21e6 | 8.57e5 | 1.40e6 | 1.51e6 |
| ScsbetaA (GeneID 41067) | 1 | 53751 | 40955 | 2.49e5 | 4.08e5 |
| ScsbetaA (GeneID 41067) | 2 | 2.00e5 | 2.04e5 | 5.32e5 | 7.70e5 |
| alph (GeneID 43481) | 1 | 1.33e5 | 91409 | 1.04e6 | 8.73e5 |
| alph (GeneID 43481) | 2 | 3.88e5 | 6.92e5 | 1.07e6 | 1.38e6 |
| betaTub97EF (GeneID 43359) | 1 | 2.20e5 | 1.97e5 | 2.48e6 | 2.66e6 |
| betaTub97EF (GeneID 43359) | 2 | 1.73e5 | 1.98e5 | 2.38e6 | 2.72e6 |
| betaTub97EF (GeneID 43359) | 3 | 1.58e5 | 1.70e5 | 2.26e6 | 2.80e6 |
| P5cr-2 (GeneID 42106) | 1 | 67474 | 94719 | 1.32e6 | 1.05e6 |

3 successive entries already listed:
| gene knocked down | reagent no. | firefly reporter light, replicate 1 | firefly reporter light, replicate 2 | Renilla control light, replicate 1 | Renilla control light, replicate 2 |
| --- | --- | --- | --- | --- | --- |
| wdn (GeneID 43398) | 1 | 1.07e5 | 77155 | 4.44e5 | 3.54e5 |
| wdn (GeneID 43398) | 2 | 5.46e5 | 5.72e5 | 8.31e5 | 7.71e5 |
| Tbh (GeneID 31718) | 1 | 2.54e5 | 3.25e5 | 2.49e6 | 2.48e6 |
